# This is one part of the list.
# B1: Epa19 (Candida glabrata) (protein)
# chain: MGSSHHHHHHSSGLVPRGSHMASSKDPTRFPIGCSPQVLKTQPGLAVKLYSYGHPVPGCSYITYQYPDFPRSGYKKERKLADITGVNGKIDIDLKPNDPCRVLTGHLPSNYNYPDTLTYTNFTMILYGYFQPKVTGYHTFNLEADDLLFMNLGAGNAFDCCKAESTLDNFGNYQSYSLWGSDYAKANITVFLVSGVYYPIRLFYVNRDNNAVIDFSFTTEFDKEKVHDFTSYFFSASDGEQCPGSV
# Tests used:
# Assay in all cases: glycan array binding signal (z-score within array); higher = stronger binding
# Settings in all cases: glycan notation: IUPAC condensed, linker removed
# [1] = target: Fuc(a1-2)[Gal(a1-3)]Gal(b1-4)GlcNAc(b1-2)Man(a1-3)[Fuc(a1-2)[Gal(a1-3)]Gal(b1-4)GlcNAc(b1-2)Man(a1-6)]Man(b1-4)GlcNAc(b1-4)GlcNAc
# Procedure, shortened: (§1)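 Columns mapping to the same glycan were averaged after glycan names were converted to IUPAC-condensed notation. The data come from 3228 arrays in the Consortium for Functional Glycomics database, limited to those with an available protein sequence. Binding is reported as a within-array Z-score averaged across arrays of one protein sequence and across linkers.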
# [2] = target: Fuc(a1-2)[Gal(a1-3)]Gal(b1-4)GlcNAc(b1-2)Man(a1-3)[Fuc(a1-2)[Gal(a1-3)]Gal(b1-4)GlcNAc(b1-2)Man(a1-6)]Man(b1-4)GlcNAc(b1-4)[Fuc(a1-6)]GlcNAc
# Procedure, shortened: as §1
# [3] = target: Fuc(a1-2)[Gal(a1-3)]Gal(b1-4)GlcNAc(b1-3)GalNAc
# Procedure, shortened: as §1
# [4] = target: Fuc(a1-2)[Gal(a1-3)]Gal(b1-4)GlcNAc(b1-3)[Fuc(a1-2)[Gal(a1-3)]Gal(b1-4)GlcNAc(b1-6)]GalNAc
# Procedure, shortened: as §1
# [5] = target: Fuc(a1-2)[Gal(a1-3)]Gal(b1-4)GlcNAc(b1-6)GalNAc
# Procedure, shortened: as §1
# [6] = target: Fuc(a1-2)[Gal(a1-3)]Gal(b1-4)[Fuc(a1-3)]Glc
# Procedure, shortened: as §1
# [7] = target: Fuc(a1-2)[Gal(a1-3)]Gal(b1-4)[Fuc(a1-3)]GlcNAc
# Procedure, shortened: as §1
# [8] = target: Fuc(a1-2)[Gal(a1-3)]Gal(b1-4)[Fuc(a1-3)]GlcNAc(b1-3)GalNAc
# Procedure, shortened: as §1
# [9] = target: Fuc(a1-2)[Gal(a1-4)]Gal(b1-4)GlcNAc
# Procedure, shortened: as §1
# [10] = target: Fuc(a1-2)[GalNAc(a1-3)]Gal
# Procedure, shortened: as §1
# [11] = target: Fuc(a1-2)[GalNAc(a1-3)]Gal(b1-3)GalNAc(a1-3)[Fuc(a1-2)]Gal(b1-4)GlcNAc
# Procedure, shortened: as §1
# [12] = target: Fuc(a1-2)[GalNAc(a1-3)]Gal(b1-3)GalNAc(b1-3)Gal(a1-4)Gal(b1-4)Glc
# Procedure, shortened: as §1
# [13] = target: Fuc(a1-2)[GalNAc(a1-3)]Gal(b1-3)GlcNAc
# Procedure, shortened: as §1
# [14] = target: Fuc(a1-2)[GalNAc(a1-3)]Gal(b1-3)GlcNAc(b1-2)Man(a1-3)[Fuc(a1-2)[GalNAc(a1-3)]Gal(b1-3)GlcNAc(b1-2)Man(a1-6)]Man(b1-4)GlcNAc(b1-4)GlcNAc
# Procedure, shortened: as §1
# [15] = target: Fuc(a1-2)[GalNAc(a1-3)]Gal(b1-3)GlcNAc(b1-2)Man(a1-3)[Fuc(a1-2)[GalNAc(a1-3)]Gal(b1-3)GlcNAc(b1-2)Man(a1-6)]Man(b1-4)GlcNAc(b1-4)[Fuc(a1-6)]GlcNAc
# Procedure, shortened: as §1
# [16] = target: Fuc(a1-2)[GalNAc(a1-3)]Gal(b1-3)GlcNAc(b1-3)GalNAc
# Procedure, shortened: as §1
# [17] = target: Fuc(a1-2)[GalNAc(a1-3)]Gal(b1-3)GlcNAc(b1-6)GalNAc
# Procedure, shortened: as §1
# [18] = target: Fuc(a1-2)[GalNAc(a1-3)]Gal(b1-4)Glc
# Procedure, shortened: as §1
# [19] = target: Fuc(a1-2)[GalNAc(a1-3)]Gal(b1-4)GlcNAc
# Procedure, shortened: as §1
# [20] = target: Fuc(a1-2)[GalNAc(a1-3)]Gal(b1-4)GlcNAc(b1-2)Man
# Procedure, shortened: as §1
# [21] = target: Fuc(a1-2)[GalNAc(a1-3)]Gal(b1-4)GlcNAc(b1-2)Man(a1-3)[Fuc(a1-2)[GalNAc(a1-3)]Gal(b1-4)GlcNAc(b1-2)Man(a1-6)]Man(b1-4)GlcNAc(b1-4)GlcNAc
# Procedure, shortened: as §1
# [22] = target: Fuc(a1-2)[GalNAc(a1-3)]Gal(b1-4)GlcNAc(b1-2)Man(a1-3)[Fuc(a1-2)[GalNAc(a1-3)]Gal(b1-4)GlcNAc(b1-2)Man(a1-6)]Man(b1-4)GlcNAc(b1-4)[Fuc(a1-6)]GlcNAc
# Procedure, shortened: as §1
# [23] = target: Fuc(a1-2)[GalNAc(a1-3)]Gal(b1-4)GlcNAc(b1-3)Gal(b1-4)GlcNAc
# Procedure, shortened: as §1
# [24] = target: Fuc(a1-2)[GalNAc(a1-3)]Gal(b1-4)GlcNAc(b1-3)Gal(b1-4)GlcNAc(b1-3)Gal(b1-4)GlcNAc
# Procedure, shortened: as §1
# [25] = target: Fuc(a1-2)[GalNAc(a1-3)]Gal(b1-4)GlcNAc(b1-3)GalNAc
# Procedure, shortened: as §1
# [26] = target: Fuc(a1-2)[GalNAc(a1-3)]Gal(b1-4)GlcNAc(b1-3)[Fuc(a1-2)[GalNAc(a1-3)]Gal(b1-4)GlcNAc(b1-6)]GalNAc
# Procedure, shortened: as §1
# [27] = target: Fuc(a1-2)[GalNAc(a1-3)]Gal(b1-4)GlcNAc(b1-6)GalNAc
# Procedure, shortened: as §1
# [28] = target: Fuc(a1-2)[GalNAc(a1-3)]Gal(b1-4)[Fuc(a1-3)]GlcNAc
# Procedure, shortened: as §1
# [29] = target: Fuc(a1-2)[GalNAc(a1-3)]Gal(b1-4)[Fuc(a1-3)]GlcNAc(b1-3)GalNAc
# Procedure, shortened: as §1
# [30] = target: Fuc(a1-2)[GalNAc(a1-4)]Gal(b1-4)GlcNAc
# Procedure, shortened: as §1
# [31] = target: Fuc(a1-2)[GalNAc(b1-3)]Gal
# Procedure, shortened: as §1
# Fuc(a1-3)GlcNAc = target: Fuc(a1-3)GlcNAc
# Procedure, shortened: as §1
# [32] = target: Fuc(a1-3)[Gal(b1-4)]Glc6S
# Procedure, shortened: as §1
# [33] = target: Fuc(a1-3)[Gal(b1-4)]GlcNAc
# Procedure, shortened: as §1
# [34] = target: Fuc(a1-3)[Gal(b1-4)]GlcNAc(b1-2)Man
# Procedure, shortened: as §1
# [35] = target: Fuc(a1-3)[Gal(b1-4)]GlcNAc(b1-2)Man(a1-3)[Fuc(a1-3)[Gal(b1-4)]GlcNAc(b1-2)Man(a1-6)]Man(b1-4)GlcNAc(b1-4)GlcNAc
# Procedure, shortened: as §1
# [36] = target: Fuc(a1-3)[Gal(b1-4)]GlcNAc(b1-2)Man(a1-3)[Fuc(a1-3)[Gal(b1-4)]GlcNAc(b1-2)Man(a1-6)]Man(b1-4)GlcNAc(b1-4)[Fuc(a1-6)]GlcNAc
# Procedure, shortened: as §1
# [37] = target: Fuc(a1-3)[Gal(b1-4)]GlcNAc(b1-3)Gal(b1-3)[Fuc(a1-4)]GlcNAc
# Procedure, shortened: as §1
# [38] = target: Fuc(a1-3)[Gal(b1-4)]GlcNAc(b1-3)Gal(b1-4)[Fuc(a1-3)]GlcNAc
# Procedure, shortened: as §1
# [39] = target: Fuc(a1-3)[Gal(b1-4)]GlcNAc(b1-3)Gal(b1-4)[Fuc(a1-3)]GlcNAc(b1-3)Gal(b1-4)[Fuc(a1-3)]GlcNAc
# Procedure, shortened: as §1
# [40] = target: Fuc(a1-3)[Gal(b1-4)]GlcNAc(b1-3)GalNAc
# Procedure, shortened: as §1
# [41] = target: Fuc(a1-3)[Gal(b1-4)]GlcNAc(b1-6)GalNAc
# Procedure, shortened: as §1
# [42] = target: Fuc(a1-3)[Gal(b1-4)]GlcNAc(b1-6)[Gal(b1-3)GlcNAc(b1-3)]Gal(b1-4)Glc
# Procedure, shortened: as §1
# [43] = target: Fuc(a1-3)[Gal(b1-4)]GlcNAc6S
# Procedure, shortened: as §1
# [44] = target: Fuc(a1-3)[Gal3S(b1-4)]Glc
# Procedure, shortened: as §1
# [45] = target: Fuc(a1-3)[Gal3S(b1-4)]GlcNAc
# Procedure, shortened: as §1
# [46] = target: Fuc(a1-3)[Gal3S(b1-4)]GlcNAc6S
# Procedure, shortened: as §1
# [47] = target: Fuc(a1-3)[GalNAc(b1-4)]GlcNAc
# Procedure, shortened: as §1
# [48] = target: Fuc(a1-3)[GalNAc(b1-4)]GlcNAc6S
# Procedure, shortened: as §1
# Fuc(a1-4)GlcNAc = target: Fuc(a1-4)GlcNAc
# Procedure, shortened: as §1
# Fuc(b1-3)GlcNAc = target: Fuc(b1-3)GlcNAc
# Procedure, shortened: as §1
# Gal(a1-2)Gal = target: Gal(a1-2)Gal
# Procedure, shortened: as §1
# Gal(a1-3)Gal = target: Gal(a1-3)Gal
# Procedure, shortened: as §1
# Gal(a1-3)Gal(b1-3)GlcNAc = target: Gal(a1-3)Gal(b1-3)GlcNAc
# Procedure, shortened: as §1
# [49] = target: Gal(a1-3)Gal(b1-3)GlcNAc(b1-2)Man
# Procedure, shortened: as §1
# [50] = target: Gal(a1-3)Gal(b1-3)GlcNAc(b1-2)Man(a1-3)[Gal(a1-3)Gal(b1-3)GlcNAc(b1-2)Man(a1-6)]Man(b1-4)GlcNAc(b1-4)GlcNAc
# Procedure, shortened: as §1
# [51] = target: Gal(a1-3)Gal(b1-3)GlcNAc(b1-3)GalNAc
# Procedure, shortened: as §1
# [52] = target: Gal(a1-3)Gal(b1-3)GlcNAc(b1-6)GalNAc
# Procedure, shortened: as §1
# [53] = target: Gal(a1-3)Gal(b1-3)[Fuc(a1-4)]GlcNAc(b1-2)Man(a1-3)[Gal(a1-3)Gal(b1-3)[Fuc(a1-4)]GlcNAc(b1-2)Man(a1-6)]Man(b1-4)GlcNAc(b1-4)GlcNAc
# Procedure, shortened: as §1
# Gal(a1-3)Gal(b1-4)Glc = target: Gal(a1-3)Gal(b1-4)Glc
# Procedure, shortened: as §1
binder,measurement,setting,value
B1,glycan array binding signal (z-score),[1],-0.602
same,glycan array binding signal (z-score),[2],-0.419
same,glycan array binding signal (z-score),[3],-0.163
same,glycan array binding signal (z-score),[4],0.438
same,glycan array binding signal (z-score),[5],1.58
same,glycan array binding signal (z-score),[6],0.176
same,glycan array binding signal (z-score),[7],0.507
same,glycan array binding signal (z-score),[8],0.292
same,glycan array binding signal (z-score),[9],-0.041
same,glycan array binding signal (z-score),[10],-0.144
same,glycan array binding signal (z-score),[11],-0.629
same,glycan array binding signal (z-score),[12],0.131
same,glycan array binding signal (z-score),[13],0.377
same,glycan array binding signal (z-score),[14],-0.369
same,glycan array binding signal (z-score),[15],0.235
same,glycan array binding signal (z-score),[16],2.07
same,glycan array binding signal (z-score),[17],-0.483
same,glycan array binding signal (z-score),[18],-0.248
same,glycan array binding signal (z-score),[19],-0.384
same,glycan array binding signal (z-score),[20],-0.315
same,glycan array binding signal (z-score),[21],1.59
same,glycan array binding signal (z-score),[22],0.118
same,glycan array binding signal (z-score),[23],-0.361
same,glycan array binding signal (z-score),[24],0.872
same,glycan array binding signal (z-score),[25],-0.647
same,glycan array binding signal (z-score),[26],-0.445
same,glycan array binding signal (z-score),[27],0.209
same,glycan array binding signal (z-score),[28],-0.301
same,glycan array binding signal (z-score),[29],1.08
same,glycan array binding signal (z-score),[30],1.04
same,glycan array binding signal (z-score),[31],0.438
same,glycan array binding signal (z-score),Fuc(a1-3)GlcNAc,-0.754
same,glycan array binding signal (z-score),[32],0.74
same,glycan array binding signal (z-score),[33],-0.519
same,glycan array binding signal (z-score),[34],-0.217
same,glycan array binding signal (z-score),[35],-0.077
same,glycan array binding signal (z-score),[36],0.588
same,glycan array binding signal (z-score),[37],-0.329
same,glycan array binding signal (z-score),[38],-0.007
same,glycan array binding signal (z-score),[39],-0.773
same,glycan array binding signal (z-score),[40],0.591
same,glycan array binding signal (z-score),[41],1.03
same,glycan array binding signal (z-score),[42],-0.642
same,glycan array binding signal (z-score),[43],0.42
same,glycan array binding signal (z-score),[44],0.684
same,glycan array binding signal (z-score),[45],-0.083
same,glycan array binding signal (z-score),[46],0.506
same,glycan array binding signal (z-score),[47],-0.04
same,glycan array binding signal (z-score),[48],-0.231
same,glycan array binding signal (z-score),Fuc(a1-4)GlcNAc,-0.053
same,glycan array binding signal (z-score),Fuc(b1-3)GlcNAc,-0.531
same,glycan array binding signal (z-score),Gal(a1-2)Gal,-0.54
same,glycan array binding signal (z-score),Gal(a1-3)Gal,1.19
same,glycan array binding signal (z-score),Gal(a1-3)Gal(b1-3)GlcNAc,0.407
same,glycan array binding signal (z-score),[49],-0.027
same,glycan array binding signal (z-score),[50],0.439
same,glycan array binding signal (z-score),[51],-0.091
same,glycan array binding signal (z-score),[52],0.332
same,glycan array binding signal (z-score),[53],-0.175
same,glycan array binding signal (z-score),Gal(a1-3)Gal(b1-4)Glc,-0.098

# Another view of some results above:
binder	measurement	setting	value
B1	glycan array binding signal (z-score)	[7]	0.507
same	glycan array binding signal (z-score)	[33]	-0.519
same	glycan array binding signal (z-score)	[50]	0.439

# Reference: the supplement of paper PMC8728848
